{"source": "patent US20060100431A1", "about": "“Biologically active compounds” (Amura Therapeutics Limited, priority 2002, published 2006)", "note": "Some entries share one result that the patent states for a list of compounds. Some ranges recur; such a range may be that of the whole group of compounds.", "data": [{"biological_target": "T1, human cathepsin K (Homo sapiens, UniProt P43235)", "T1 construct": "Dr. Boris Turk (Josef Stefan Institute, Ljubljana, Slovenia)", "T1 sequence (P43235 115-329)": "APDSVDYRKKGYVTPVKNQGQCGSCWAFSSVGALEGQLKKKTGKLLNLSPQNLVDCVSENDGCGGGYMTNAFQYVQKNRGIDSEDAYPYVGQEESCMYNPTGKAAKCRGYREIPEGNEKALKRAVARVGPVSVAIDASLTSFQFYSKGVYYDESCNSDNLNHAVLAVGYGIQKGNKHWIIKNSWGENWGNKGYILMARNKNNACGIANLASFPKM", "assay": "Cathepsin K peptidase activity assay (Ki)", "assay_type": "biochemical", "procedure,_shortened": "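Buffer: 10 mM bis-tris-propane pH 6.5, 1 mM EDTA, 5 mM 2-mercaptoethanol, 1 mM CaCl2; DMSO <1%. Ki assumed reversible, pure-competitive, from Ki^app=Ki(1+[So]/KM^app) by non-linear regression.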", "units": {"Ki, inhibitors of cathepsin K": "nM"}, "values": [{"smiles": "CCN(CC)c1ccc(C(=O)N[C@@H](CC(C)C)C(=O)N2CC[C@@H]3[C@H]2C(=O)CN3C(=O)c2cccc(S(C)(=O)=O)c2)cc1", "note": "[Example 60, (3aR,6aS)-4-Diethylamino-N-{(1S)-1-[4-(3-methanesulfonyl-benzoyl)-6-oxo-hexahydro-pyrrolo[3,2-b]pyrrole-1-carbonyl]-3-methyl-butyl}-benzamide]", "Ki, inhibitors of cathepsin K": "1 to 5000"}, {"smiles": "CC(C)C[C@H](NC(=O)c1ccc(C(C)(C)C)cc1)C(=O)N1CC[C@@H]2[C@H]1C(=O)CN2C(=O)c1cccc2ccccc12", "note": "[Example 33, (3aR,6aS)-tert-Butyl-N-{(1)-3-methyl-1-[4-(naphthalene-1-carbonyl)-6-oxo-hexahydro-pyrrolo[3,2-b]pyrrole-1-carbonyl-]-butyl}-benzamide]", "Ki, inhibitors of cathepsin K": "1 to 5000"}, {"smiles": "CC(C)C[C@H](NC(=O)c1ccc(N(C)C)cc1)C(=O)N1CC[C@@H]2[C@H]1C(=O)CN2C(=O)[C@@H](C)NC(=O)OCc1ccccc1", "note": "[Example 146, (3aS,6aR)-((1R)-2-{4-[(2S)-2-(4-Dimethylamino-benzoylamino)-4-methyl-pentanoyl]-3-oxo-hexahydro-pyrrolo[3,2-b]pyrrol-1-yl}-1-methyl-2-oxo-ethyl)-carbamic acid benzyl ester]", "Ki, inhibitors of cathepsin K": "1 to 5000"}, {"smiles": "CC(C)C[C@H](NC(=O)c1ccc(N(C)C)cc1)C(=O)N1CC[C@@H]2[C@H]1C(=O)CN2C(=O)[C@@H]1CCCCN1", "note": "[Example 217, (3aR,6aS)-4-Dimethylamino-N-{(1S)-3-methyl-1-[6-oxo-4-((2S)-piperidine-2-carbonyl)-hexahydro-pyrrolo[3,2-b]pyrrole-1-carbonyl]-butyl}-benzamide]", "Ki, inhibitors of cathepsin K": "1 to 5000"}, {"smiles": "CC(C)C[C@H](NC(=O)c1ccc(N(C)C)cc1)C(=O)N1CC[C@@H]2[C@H]1C(=O)CN2C(=O)c1ccccc1O", "note": "[Example 169, (3aR,6aS)-4-Dimethylamino-N-{(1S)-1-[4-(2-hydroxy-benzoyl)-6-oxo-hexahydro-pyrrolo[3,2-b]pyrrole-1-carbonyl]-3-methyl-butyl}-benzamide]", "Ki, inhibitors of cathepsin K": "1 to 5000"}, {"smiles": "CC(C)C[C@H](NC(=O)c1ccc(N(C)C)cc1)C(=O)N1CC[C@@H]2[C@H]1C(=O)CN2C(=O)c1cc[n+]([O-])cc1", "note": "[Example 83, (3aR,6aS)-4-Dimethylamino-N-{(1S)-3-methyl-1-[6-oxo-4-(1-oxy-pyridine-4-carbonyl)-hexahydro-pyrrolo[3,2-b]pyrrole-1-carbonyl]-butyl}-benzamide]", "Ki, inhibitors of cathepsin K": "1 to 5000"}, {"smiles": "CC(C)C[C@H](NC(=O)c1ccc(N(C)C)cc1)C(=O)N1CC[C@@H]2[C@H]1C(=O)CN2C(=O)C1(N)CCCCC1", "note": "[Example 225, (3aR,6aS)-N-{(1S)-1-[4-(1-Amino-cyclohexanecarbonyl)-6-oxo-hexahydro-pyrrolo[3,2-b]pyrrole-1-carbonyl]-3-methyl-butyl}-4-dimethylamino-benzamide]", "Ki, inhibitors of cathepsin K": "1 to 5000"}, {"smiles": "CC(C)C[C@H](NC(=O)c1cccc(CN)c1)C(=O)N1CC[C@@H]2[C@H]1C(=O)CN2C(=O)Cc1ccccc1F", "note": "[Example 178, (3aR,6aS)-3-Aminomethyl-N-((1S)-1-{4-[2-(2-fluoro-phenyl)-acetyl]-6-oxo-hexahydro-pyrrolo[3,2-b]pyrrole-1-carbonyl}-3-methyl-butyl)-benzamide]", "Ki, inhibitors of cathepsin K": "1 to 5000"}, {"smiles": "CC(C)C[C@H](NC(=O)c1cccc(CN)c1)C(=O)N1CC[C@@H]2[C@H]1C(=O)CN2C(=O)[C@@H](C)c1ccccc1", "note": "[Example 177, (3aR,6aS)-3-Aminomethyl-N-{(1S)-3-methyl-1-[6-oxo-4-((2S)-2-phenyl-propionyl)-hexahydro-pyrrolo[3,2-b]pyrrole-1-carbonyl]-butyl}-benzamide]", "Ki, inhibitors of cathepsin K": "1 to 5000"}, {"smiles": "CC(C)C[C@H](NC(=O)c1ccc(N(C)C)cc1)C(=O)N1CC[C@@H]2[C@H]1C(=O)CN2C(=O)c1cccnc1", "note": "[Example 21, (3aR,6aS)-4-Dimethylamino-N-{(1S)-3-methyl-1-[6-oxo-4-(pyridine-3-carbonyl)-hexahydro-pyrrolo[3,2-b]pyrrole-1-carbonyl]-butyl}-benzamide]", "Ki, inhibitors of cathepsin K": "1 to 5000"}, {"smiles": "CC(C)C[C@H](NC(=O)c1cccc(CN)c1)C(=O)N1CC[C@@H]2[C@H]1C(=O)CN2C(=O)Nc1ccccc1", "note": "[Example 175, (3aS,6aR)-4-[(2S)-2-(3-Aminomethyl-benzoylamino)-4-methyl-pentanoyl]-3-oxo-hexahydro-pyrrolo[3,2-b]pyrrole-1-carboxylic acid phenylamide]", "Ki, inhibitors of cathepsin K": "1 to 5000"}, {"smiles": "CC(C)C[C@H](NC(=O)c1ccc(N(C)C)cc1)C(=O)N1CC[C@@H]2[C@H]1C(=O)CN2C(=O)c1cccc[n+]1[O-]", "note": "[Example 80]", "Ki, inhibitors of cathepsin K": "1 to 5000"}, {"smiles": "CC(C)CCC(=O)N1CC(=O)[C@@H]2[C@H]1CCN2C(=O)[C@H](CC(C)C)NC(=O)c1ccc(N(C)C)cc1", "note": "[Example 105, (3aR,6aS)-4-Dimethylamino-N-{(1S)-3-methyl-1-[4-(4-methyl-pentanoyl)-6-oxo-hexahydro-pyrrolo[3,2-b]pyrrole-1-carbonyl]-butyl}-benzamide]", "Ki, inhibitors of cathepsin K": "1 to 5000"}, {"smiles": "CC(C)C[C@H](NC(=O)c1cccc(CN)c1)C(=O)N1CC[C@@H]2[C@H]1C(=O)CN2C(=O)[C@@H](N)CC(C)C", "note": "[Example 246, (3aR,6aS)-3-Aminomethyl-N-{(1S)-1-[4-((2S)-2-amino-4-methyl-pentanoyl)-6-oxo-hexahydro-pyrrolo[3,2-b]pyrrole-1-carbonyl)-3-methyl-butyl}-benzamide]", "Ki, inhibitors of cathepsin K": "1 to 5000"}, {"smiles": "CC(C)C[C@H](NC(=O)c1ccc(N(C)C)cc1)C(=O)N1CC[C@@H]2[C@H]1C(=O)CN2C(=O)[C@@H](C)N", "note": "[Example 163, (3aR,6aS)-N-{(1S)-1-[4-((2R)-2-Amino-propionyl)-6-oxo-hexahydro-pyrrolo[3,2-b]pyrrole-1-carbonyl]-3-methyl-butyl}-4-dimethylamino-benzamide]", "Ki, inhibitors of cathepsin K": "1 to 5000"}, {"smiles": "CC(C)C[C@H](NC(=O)c1ccc(N(C)C)cc1)C(=O)N1CC[C@@H]2[C@H]1C(=O)CN2C(=O)C1CC=CC1", "note": "[Example 243, (3aR,6aS)-N-{(1S)-1-[4-(Cyclopent-3-enecarbonyl)-6-oxo-hexahydro-pyrrolo[3,2-b]pyrrole-1-carbonyl]-3-methyl-butyl}-4-dimethylamino-benzamide]", "Ki, inhibitors of cathepsin K": "1 to 5000"}, {"smiles": "CC(C)C[C@H](NC(=O)c1cc2ccccc2o1)C(=O)N1CC[C@@H]2[C@H]1C(=O)CN2S(=O)(=O)c1ccccc1", "note": "[Example 121, (3aR,6aS)-Benzofuran-2-carboxylic acid [(1S)-1-(4-benzenesulfonyl-6-oxo-hexahydro-pyrrolo[3,2-b]pyrrole-1-carbonyl)-3-methyl-butyl]-amide]", "Ki, inhibitors of cathepsin K": "1 to 5000"}, {"smiles": "CC(C)C[C@H](NC(=O)c1ccc2ccccc2n1)C(=O)N1CC[C@@H]2[C@H]1C(=O)CN2C(=O)c1cccnc1", "note": "[Example 18, (3aR,6aS)-Quinoline-2-carboxylic acid {(1S)-3-methyl-1-[6-oxo-4-(pyridine-3-carbonyl)-hexahydro-pyrrolo[3,2-b]pyrrole-1-carbonyl]-butyl}-amide]", "Ki, inhibitors of cathepsin K": "1 to 5000"}, {"smiles": "CC(C)C[C@H](NC(=O)c1ccc2[nH]ccc2c1)C(=O)N1CC[C@@H]2[C@H]1C(=O)CN2C(=O)c1ccccc1", "note": "[Example 89, (3aR,6aS)-1H-Indole-5-carboxylic acid [(1S)-1-(4-benzoyl-6-oxo-hexahydro-pyrrolo[3,2-b]pyrrole-1-carbonyl)-3-methyl-butyl]-amide]", "Ki, inhibitors of cathepsin K": "1 to 5000"}, {"smiles": "CC(C)C[C@H](NC(=O)c1ccc(N(C)C)cc1)C(=O)N1CC[C@@H]2[C@H]1C(=O)CN2C(=O)c1ccc(Cl)o1", "note": "[Example 244, (3aR,6aS)-N-{(1S)-1-[4-(5-Chloro-furan-2-carbonyl)-6-oxo-hexahydro-pyrrolo[3,2-b]pyrrole-1-carbonyl]-3-methyl-butyl}-4-dimethylamino-benzamide]", "Ki, inhibitors of cathepsin K": "1 to 5000"}, {"smiles": "CC(C)C[C@H](NC(=O)c1ccc(C(C)(C)C)cc1)C(=O)N1CC[C@@H]2[C@H]1C(=O)CN2C(=O)c1cccc(Oc2ccccc2)c1", "note": "[Example 24, (3aR,6aS)-4-tert-Butyl-N-{(1S)-3-methyl-1-[6-oxo-4-(3-phenoxy-benzoyl)-hexahydro-pyrrolo[3,2-b]pyrrole-1-carbonyl]-butyl}-benzamide]", "Ki, inhibitors of cathepsin K": "1 to 5000"}, {"smiles": "CC(C)C[C@H](NC(=O)c1ccc(N(C)C)cc1)C(=O)N1CC[C@@H]2[C@H]1C(=O)CN2C(=O)C1CC=CCC1", "note": "(stereo partly drawn) [Example 138, (3aR,6aS)-N-{(1S)-1-[4-(Cyclohex-3-enecarbonyl)-6-oxo-hexahydro-pyrrolo[3,2-b]pyrrole-1-carbonyl]-3-methyl-butyl}-4-dimethylamino-benzamide]", "Ki, inhibitors of cathepsin K": "1 to 5000"}, {"smiles": "Cc1ccccc1C(=O)N1CC(=O)[C@@H]2[C@H]1CCN2C(=O)[C@H](CC(C)C)NC(=O)c1ccc(N(C)C)cc1", "note": "[Example 53, (3aR,6aS)-4-Dimethylamino-N-{(1S)-3-methyl-1-[4-(2-methyl-benzoyl)-6-oxo-hexahydro-pyrrolo[3,2-b]pyrrole-1-carbonyl]-butyl}-benzamide]", "Ki, inhibitors of cathepsin K": "1 to 5000"}, {"smiles": "CC(C)C[C@H](NC(=O)c1ccc(N(C)C)cc1)C(=O)N1CC[C@@H]2[C@H]1C(=O)CN2C(=O)c1csc2ccccc12", "note": "[Example 103, (3aR,6aS)-N-{(1S)-1-[4-(Benzo[b]thiophene-3-carbonyl)-6-oxo-hexahydro-pyrrolo[3,2-b]pyrrole-1-carbonyl]-3-methyl-butyl}-4-dimethylamino-benzamide]", "Ki, inhibitors of cathepsin K": "1 to 5000"}, {"smiles": "CC(C)C[C@H](NC(=O)c1ccc(N(C)C)cc1)C(=O)N1CC[C@@H]2[C@H]1C(=O)CN2C(=O)c1ccccc1C(F)(F)F", "note": "[Example 67, (3aR,6aS)-4-Dimethylamino-N-{(1S)-3-methyl-1-[6-oxo-4-(2-trifluoromethyl-benzoyl)-hexahydro-pyrrolo[3,2-b]pyrrole-1-carbonyl]-butyl}-benzamide]", "Ki, inhibitors of cathepsin K": "1 to 5000"}]}]}
